Assay results published in article PMC4540474.
Results are given in words; binding and its absence hold for the method and conditions named. Binding seen in cells or lysates may run through a third protein. Some entries that bind do so weakly or less than the wild type.

B1: IKKβ (protein, UniProt O14920 1-756)
chain: MSWSPSLTTQTCGAWEMKERLGTGGFGNVIRWHNQETGEQIAIKQCRQELSPRNRERWCLEIQIMRRLTHPNVVAARDVPEGMQNLAPNDLPLLAMEYCQGGDLRKYLNQFENCCGLREGAILTLLSDIASALRYLHENRIIHRDLKPENIVLQQGEQRLIHKIIDLGYAKELDQGSLCTSFVGTLQYLAPELLEQQKYTVTVDYWSFGTLAFECITGFRPFLPNWQPVQWHSKVRQKSEVDIVVSEDLNGTVKFSSSLPYPNNLNSVLAERLEKWLQLMLMWHPRQRGTDPTYGPNGCFKALDDILNLKLVHILNMVTGTIHTYPVTEDESLQSLKARIQQDTGIPEEDQELLQEAGLALIPDKPATQCISDGKLNEGHTLDMDLVFLFDNSKITYETQISPRPQPESVSCILQEPKRNLAFFQLRKVWGQVWHSIQTLKEDCNRLQQGQRAAMMNLLRNNSCLSKMKNSMASMSQQLKAKLDFFKTSIQIDLEKYSEQTEFGITSDKLLLAWREMEQAVELCGRENEVKLLVERMMALQTDIVDLQRSPMGRKQGGTLDDLEEQARELYRRLREKPRDQRTEGDSQEMVRLLLQAIQSFEKKVRVIYTQLSKTVVCKQKALELLPKVEEVVSLMNEDEKTVVRLQEKRQKELWNLLKIACSKVRGPVSGSPDSMNASRLSQPGQLMSQPSTASNSLPEPAKKSEELVAEAHNLCTLLENAIQDTVREQDQSFTALDWSWLQTEEEEHSCLEQAS
B2: TGFβ-activated kinase 1 (TAK1) (protein, UniProt O43318 1-606)
chain: MSTASAASSSSSSSAGEMIEAPSQVLNFEEIDYKEIEVEEVVGRGAFGVVCKAKWRAKDVAIKQIESESERKAFIVELRQLSRVNHPNIVKLYGACLNPVCLVMEYAEGGSLYNVLHGAEPLPYYTAAHAMSWCLQCSQGVAYLHSMQPKALIHRDLKPPNLLLVAGGTVLKICDFGTACDIQTHMTNNKGSAAWMAPEVFEGSNYSEKCDVFSWGIILWEVITRRKPFDEIGGPAFRIMWAVHNGTRPPLIKNLPKPIESLMTRCWSKDPSQRPSMEEIVKIMTHLMRYFPGADEPLQYPCQYSDEGQSNSATSTGSFMDIASTNTSNKSDTNMEQVPATNDTIKRLESKLLKNQAKQQSESGRLSLGASRGSSVESLPPTSEGKRMSADMSEIEARIAATTAYSKPKRGHRKTASFGNILDVPEIVISGNGQPRRRSIQDLTVTGTEPGQVSSRSSSPSVRMITTSGPTSEKPTRSHPWTPDDSTDTNGSDNSIPMAYLTLDHQLQPLAPCPNSKESMAVFEQHCKMAQEYMKVQTEIALLLQRKQELVAELDQDEKDQQNTSRLVQEHKKLLDENKSLSTYYQQCKKQLEVIRSQQQKRQGTS
B3: ring finger protein 8 (RNF8) (protein, UniProt O76064 1-485)
chain: MGEPGFFVTGDRAGGRSWCLRRVGMSAGWLLLEDGCEVTVGRGFGVTYQLVSKICPLMISRNHCVLKQNPEGQWTIMDNKSLNGVWLNRARLEPLRVYSIHQGDYIQLGVPLENKENAEYEYEVTEEDWETIYPCLSPKNDQMIEKNKELRTKRKFSLDELAGPGAEGPSNLKSKINKVSCESGQPVKSQGKGEVASTPSDNLDPKLTALEPSKTTGAPIYPGFPKVTEVHHEQKASNSSASQRSLQMFKVTMSRILRLKIQMQEKHEAVMNVKKQTQKGNSKKVVQMEQELQDLQSQLCAEQAQQQARVEQLEKTFQEEEQHLQGLEIAQGEKDLKQQLAQALQEHWALMEELNRSKKDFEAIIQAKNKELEQTKEEKEKMQAQKEEVLSHMNDVLENELQCIICSEYFIEAVTLNCAHSFCSYCINEWMKRKIECPICRKDIKSKTYSLVLDNCINKMVNNLSSEVKERRIVLIRERKAKRLF

Molecular target: S-peptide-tagged (S-tagged) HTLV-1 Tax (HTLV-1) (UniProt P03409)
Assay: pull-down; S-tagged Tax captured from cleared lysate of transfected HEK293T cells on S-protein agarose beads, 4 °C overnight; lysis buffer with the deubiquitinase inhibitor PR619; beads washed three times; supernatant and pull-down fractions immunoblotted

| Binder | binding |
| --- | --- |
| B1 | binds |
| B2 | binds |
| B3 | binds |
